# Test results taken from article PMC8532385.
# Protein sequences, listed by entry. Tags and fused reporters are not part of them.
# UniProt Q9NQG6: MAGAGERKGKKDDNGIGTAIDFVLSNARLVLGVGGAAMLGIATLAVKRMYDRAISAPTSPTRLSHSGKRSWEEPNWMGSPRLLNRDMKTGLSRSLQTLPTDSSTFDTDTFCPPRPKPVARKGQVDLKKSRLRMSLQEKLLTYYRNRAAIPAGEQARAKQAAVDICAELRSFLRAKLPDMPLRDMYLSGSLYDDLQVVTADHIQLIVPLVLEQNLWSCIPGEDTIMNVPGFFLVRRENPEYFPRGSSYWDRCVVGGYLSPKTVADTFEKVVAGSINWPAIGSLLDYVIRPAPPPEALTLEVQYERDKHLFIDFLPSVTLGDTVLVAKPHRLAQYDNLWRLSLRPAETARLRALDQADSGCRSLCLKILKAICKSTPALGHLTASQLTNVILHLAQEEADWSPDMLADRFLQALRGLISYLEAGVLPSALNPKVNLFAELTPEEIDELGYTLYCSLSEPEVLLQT
# UniProt P21796: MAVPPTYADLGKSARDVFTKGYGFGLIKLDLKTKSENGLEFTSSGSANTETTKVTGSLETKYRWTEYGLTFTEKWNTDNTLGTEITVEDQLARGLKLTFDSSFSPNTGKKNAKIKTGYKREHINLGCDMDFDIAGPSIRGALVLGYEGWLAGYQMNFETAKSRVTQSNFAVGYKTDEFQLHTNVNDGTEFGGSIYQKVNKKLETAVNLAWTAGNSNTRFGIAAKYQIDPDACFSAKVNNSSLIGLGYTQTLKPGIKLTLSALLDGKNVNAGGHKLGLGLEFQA
# Results are given in words; binding and its absence hold for the method and conditions named. Binding seen in cells or lysates may run through a third protein.
# How the values were obtained:
# [1] = biological target: T1, MIEF2 (endogenous) (human (endogenous in 293T)) (UniProt Q96C03); test: co-IP; endogenous proteins; 293T cells in vivo crosslinked with 1% formaldehyde; Protein G beads pre-bound to anti-Mfn1 or anti-Mfn2 antibody (normal IgG as control), overnight at 4°C; immunoblot
# T1 sequence: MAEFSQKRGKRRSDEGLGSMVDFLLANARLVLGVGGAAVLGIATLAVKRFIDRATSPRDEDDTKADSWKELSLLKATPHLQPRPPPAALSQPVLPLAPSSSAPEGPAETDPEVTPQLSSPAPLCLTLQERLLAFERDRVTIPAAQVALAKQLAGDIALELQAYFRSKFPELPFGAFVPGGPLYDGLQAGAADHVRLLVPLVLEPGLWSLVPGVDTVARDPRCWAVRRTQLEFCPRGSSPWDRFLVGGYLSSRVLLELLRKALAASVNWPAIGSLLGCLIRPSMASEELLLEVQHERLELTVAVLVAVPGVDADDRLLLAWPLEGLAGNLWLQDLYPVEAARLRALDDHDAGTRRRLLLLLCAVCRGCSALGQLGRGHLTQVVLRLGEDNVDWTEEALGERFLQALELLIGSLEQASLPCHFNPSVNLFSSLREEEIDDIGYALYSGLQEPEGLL
# [2] = biological target: MIEF1 (endogenous) (human (endogenous in 293T)) (UniProt Q9NQG6); test: as above
substance,measurement,setting,value
"voltage-dependent anion channel 1 (VDAC1), endogenous (from UniProt P21796 1-283)",binding,[1],no binding
same,binding,[2],no binding
